Reference: PubChem BioAssay AID1159578 (Peter MacCallum Cancer Centre, 2015)

Aim: 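Genome-wide hunt for genes controlling movement of lymphatic endothelial cells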 (primary screen)
Cells: human lymphatic endothelial cells
Knock-down reagent: siRNA pool against human genes, 40 nM
Time to read-out: 48 h after transfection
Measured: 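High-content imaging of dye-stained cells in a scratch assay measures filled wound area and nuclei per well; duplicate means given as ratio to mock and robust z-score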
Reading the numbers: migration robust z-score: higher = faster migration into the scratch; migration relative to mock: higher = more scratch area covered than mock; nuclei per well: higher = more cells in the well
Hit rule: 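Migration changed when robust z exceeds 2 or falls below -2 and mean nuclei number is at least 3300; otherwise not called changed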
Calls: active = migration changed; inactive = no migration change, or too few cells
Shown is a random part of about 18,000 reagents. About 1,030 of all reagents (5.7%) count as active. 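Inactive calls also include pools with fewer than 3300 nuclei, whose migration was not assessed.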 Raw values are not corrected between plates. No sequences are given here.

Gene	migration robust z-score	migration class with cell-count check	migration relative to mock	nuclei per well, duplicate mean	outcome
HCG27 (HLA complex group 27)	-0.66	migration z between -2 and 2; enough cells	0.72	7411	inactive
LRRC45 (leucine rich repeat containing 45)	0.15	migration z between -2 and 2; enough cells	0.92	6372	inactive
C4orf36 (chromosome 4 open reading frame 36)	0.01	migration z between -2 and 2; enough cells	0.88	5063	inactive
OR6C4 (olfactory receptor family 6 subfamily C member 4)	1.48	migration z between -2 and 2; enough cells	1.27	5993	inactive
MTX3 (metaxin 3)	-0.9	migration z between -2 and 2; enough cells	0.64	6320	inactive
AUNIP (aurora kinase A and ninein interacting protein)	-0.75	migration z between -2 and 2; enough cells	0.69	5252	inactive
CLEC4F (C-type lectin domain family 4 member F)	-0.56	migration z between -2 and 2; enough cells	0.74	5397	inactive
TRIM51BP (tripartite motif-containing 51B, pseudogene)	-0.26	migration z between -2 and 2; enough cells	0.76	4055	inactive
RNF166 (ring finger protein 166)	-0.75	migration z between -2 and 2; enough cells	0.66	3365	inactive
LYPLAL1 (lysophospholipase like 1)	0.76	migration z between -2 and 2; enough cells	0.95	7062	inactive
PHKA2 (phosphorylase kinase regulatory subunit alpha 2)	-1.63	migration z between -2 and 2; enough cells	0.49	5667	inactive
DUSP7 (dual specificity phosphatase 7)	1.12	migration z between -2 and 2; enough cells	1.02	5436	inactive
ZC3H6 (zinc finger CCCH-type containing 6)	-0.98	migration z between -2 and 2; enough cells	0.64	6796	inactive
DLG3 (discs large MAGUK scaffold protein 3)	0.29	migration z between -2 and 2; enough cells	0.86	4693	inactive
PIGV (phosphatidylinositol glycan anchor biosynthesis class V)	-0.77	migration z between -2 and 2; enough cells	0.68	6356	inactive
ELF4 (E74 like ETS transcription factor 4)	-2.57	migration z below -2; enough cells	0.31	4042	active
BRWD1 (bromodomain and WD repeat domain containing 1)	1.03	migration z between -2 and 2; enough cells	1	6002	inactive
CD300LD-AS1 (CD300LD antisense RNA 1)	-0.71	migration z between -2 and 2; enough cells	0.7	5677	inactive
NSD1 (nuclear receptor binding SET domain protein 1)	0.36	migration z between -2 and 2; enough cells	0.88	5970	inactive
DMRTC1 (DMRT like family C1)	-4.96	under 3300 nuclei; migration not judged	-0.4	2078	inactive
PSME2 (proteasome activator subunit 2)	0.5	migration z between -2 and 2; enough cells	1.02	5633	inactive
ZXDC (ZXD family zinc finger C)	-1.35	migration z between -2 and 2; enough cells	0.53	3478	inactive
FDFT1 (farnesyl-diphosphate farnesyltransferase 1)	-1.44	migration z between -2 and 2; enough cells	0.52	6492	inactive
PWP2 (PWP2 small subunit processome component)	-0.78	migration z between -2 and 2; enough cells	0.68	6013	inactive
NEO1 (neogenin 1)	-0.73	migration z between -2 and 2; enough cells	0.66	5492	inactive
PPP2R2C (protein phosphatase 2 regulatory subunit Bgamma)	0.18	migration z between -2 and 2; enough cells	0.84	7042	inactive
CWC22 (CWC22 spliceosome associated protein)	-3.01	migration z below -2; enough cells	0.11	4974	active
HLF (HLF transcription factor, PAR bZIP family member)	-0.98	migration z between -2 and 2; enough cells	0.63	4810	inactive
HHIPL1 (HHIP like 1)	0.65	migration z between -2 and 2; enough cells	1.06	6784	inactive
GNG10 (G protein subunit gamma 10)	1.6	migration z between -2 and 2; enough cells	1.12	5900	inactive
CMC1 (C-X9-C motif containing 1)	3.65	migration z above 2; enough cells	1.83	5846	active
RNF43 (ring finger protein 43)	-1.6	migration z between -2 and 2; enough cells	0.5	5060	inactive
CENPL (centromere protein L)	-0.4	migration z between -2 and 2; enough cells	0.78	5776	inactive
HCFC1R1 (host cell factor C1 regulator 1)	0.07	migration z between -2 and 2; enough cells	0.9	5748	inactive
CBX8 (chromobox 8)	-1.79	migration z between -2 and 2; enough cells	0.46	3682	inactive
NSUN5P1 (NSUN5 pseudogene 1)	0.26	migration z between -2 and 2; enough cells	0.96	4830	inactive
F11 (coagulation factor XI)	0.29	migration z between -2 and 2; enough cells	0.86	5400	inactive
STUB1 (STIP1 homology and U-box containing protein 1)	-0.54	migration z between -2 and 2; enough cells	0.7	5210	inactive
RARA (retinoic acid receptor alpha)	0	migration z between -2 and 2; enough cells	0.8	4918	inactive
UBE3C (ubiquitin protein ligase E3C)	1.61	migration z between -2 and 2; enough cells	1.11	5274	inactive
OR7G1 (olfactory receptor family 7 subfamily G member 1)	-2.34	migration z below -2; enough cells	0.28	5899	active
NCMAP (non-compact myelin associated protein)	-0.51	migration z between -2 and 2; enough cells	0.75	6831	inactive
GPSM1 (G protein signaling modulator 1)	0.18	migration z between -2 and 2; enough cells	0.93	5685	inactive
KCNH1 (potassium voltage-gated channel subfamily H member 1)	0.1	migration z between -2 and 2; enough cells	0.82	5617	inactive
ZNF385D (zinc finger protein 385D)	-0.44	migration z between -2 and 2; enough cells	0.77	5679	inactive
TRIM36 (tripartite motif containing 36)	1.01	migration z between -2 and 2; enough cells	1	6397	inactive
ARL9 (ARF like GTPase 9)	1.7	migration z between -2 and 2; enough cells	1.33	5346	inactive
NUDT8 (nudix hydrolase 8)	0.68	migration z between -2 and 2; enough cells	1.06	6222	inactive
XPO5 (exportin 5)	0.48	migration z between -2 and 2; enough cells	1.01	5940	inactive
GLI4 (GLI family zinc finger 4)	-1.54	migration z between -2 and 2; enough cells	0.48	4200	inactive
ZNF165 (zinc finger protein 165)	0.72	migration z between -2 and 2; enough cells	1.07	5615	inactive
RELN (reelin)	0.26	migration z between -2 and 2; enough cells	0.86	4877	inactive
MRAP2 (melanocortin 2 receptor accessory protein 2)	2.68	migration z above 2; enough cells	1.58	5514	active
TRPC4AP	0.2	migration z between -2 and 2; enough cells	0.84	7211	inactive
SPIN2B (spindlin family member 2B)	-0.85	migration z between -2 and 2; enough cells	0.66	5966	inactive
CPNE7 (copine 7)	0.54	migration z between -2 and 2; enough cells	0.91	7115	inactive
ZNF616 (zinc finger protein 616)	2.79	migration z above 2; enough cells	1.6	6572	active

Looked up above.
For “nuclei per well, duplicate mean”, DLG3 (discs large MAGUK scaffold protein 3) reads 4693
RNF166 (ring finger protein 166), nuclei per well, duplicate mean = 3365
Under “nuclei per well, duplicate mean”, UBE3C (ubiquitin protein ligase E3C) is entered as 5274
